Reference: PubChem BioAssay AID1471 (National Center for Advancing Translational Sciences (NCATS), 2008)
The campaign covered roughly 230,000 compounds. About 310 (0.13%) were called active. The inconclusive results got no clear call from the source; some entries with a clear call stand among them for comparison. The call rests on the fitted dose curve; in most records, active means well fitted activation curve with a large enough effect; inconclusive means small, poorly fitted or top-dose-only effect; inactive means no such curve, though single readings can be large or run the other way. Potencies beside an inconclusive call are fits to weak or partial responses and may not hold up.

Assay: qHTS Multiplex Assay to Identify Dual Action Probes in a Cell Model of Huntington: Cytoprotection (ATP); further: nearly all actives have a fitted effect of over 45% in size;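 on cytoprotection (ATP increase): toxic huntingtin expression switched on by the ecdysone agonist tebufenozide; % of control where 0% means no effect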
Conditions: PC12 HTT-Q103 induced, ATP luminescence, 40 h; cytoprotection (ATP increase): at 56.4 µM (top of the series) unless noted
How it was run: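 Rat PC12, Q103 Htt exon1-GFP fusion, ecdysone promoter; tebufenozide inducer 100 nM final; compound titration; qHTS, 1500 cells/well; ATPlite luminescent read.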
Potency means the concentration at half of the fitted maximal effect.

| SMILES | Potency | cytoprotection (ATP increase) |
| --- | --- | --- |
| CCOC(=O)c1c(NC(=O)CC)sc(C(=O)N2CCCCC2)c1C | inactive | – |
| CCC1=C2CC[C@H]3C(=O)N(CC)C(=O)[C@H]3[C@H]2[C@@]2(C)C(=NCCc3c[nH]c4ccccc34)OC(=O)N2C1=O | inconclusive: 7.08 µM [activator, partial curve] | – |
| COc1ccc(CCN2C(=O)CC(C(N)=O)SC2=Nc2ccc(F)cc2)cc1OC (configuration not stated) | inconclusive: 3.16 µM [activator, partial curve] | – |
| O=C1CC(SC(=Nc2ccccc2)Nc2ccccc2)C(=O)N1c1ccc(Cl)cc1 (configuration not stated) | inconclusive: 0.708 µM [activator, full curve, poor fit] | – |
| CC(=O)Nc1cccc(NC(=O)Cc2nc(-c3ccccc3)sc2-c2ccc(C)cc2)c1 | – | inactive: 5.91% [at 10 µM] |
| Cc1cccc(Cn2nc(C)c(NC(=O)c3ccc(F)cc3)c2C)c1 | inconclusive: 0.316 µM [activator, partial curve] | – |
| CSc1nsc(SCC(=O)N2CCCCC2)n1 | inconclusive: 1 µM [activator, single point] | – |
| Cc1[nH]c(=O)c(C#N)cc1-c1ccncc1 | inconclusive: 0.794 µM [activator, full curve, poor fit] | – |
| O=C(OCC(=O)N1CCc2ccccc21)c1cncc(Br)c1 | active: 2.24 µM | – |
| O=C1CCCN1c1ccc(S(=O)(=O)Oc2ccc(Cl)cc2)cc1[N+](=O)[O-] | inactive | – |
| CC(C)[C@H](CO)Nc1nc(Nc2cccc(Cl)c2)c2ncn(C(C)C)c2n1 | inconclusive: 20 µM [activator, single point] | – |
| CCN(CC)CCN(C)c1ccc(N2C(=O)C3CC=CCC3C2=O)cc1[N+](=O)[O-] (configuration not stated) | inconclusive: 1.12 µM [activator, single point] | – |
| Cc1ccc(NC(=O)CSc2ccc(-c3ccco3)nn2)c(C)c1 | inconclusive: 10 µM [activator, partial curve, poor fit] | – |
| CC(C)=CCC/C(C)=C/COc1c2ccoc2cc2oc(=O)ccc12 | inconclusive: 15.8 µM [activator, partial curve, poor fit] | – |
| O=C(CCN1C(=O)/C(=C/c2ccccc2Cl)SC1=S)NNC(=O)c1cccnc1 | – | inactive: 18.7% [at 10 µM] |
| CN(C)CCC=C1c2ccccc2CCc2ccccc21 | inconclusive: 3.16 µM [activator, single point] | – |
| COCCNC(=O)CSc1nc2cc(OC)c(OC)cc2c(=O)n1Cc1ccco1 | inactive | – |
| Cc1cc(CSc2ccccc2)ccc1NC(=O)c1ccc(CN2CCOCC2)cc1 | – | inactive: -8.25% [at 0.074 µM] |
| Cc1ccc(C2C(C#N)=C(N)Oc3cc(C)oc(=O)c32)o1 (configuration not stated) | – | inactive: -3.1% [at 10 µM] |
| COc1ccc(C(=O)N(Cc2ccco2)C(C(=O)NC2CCCC2)c2ccc(O)cc2)cc1OC (configuration not stated) | – | inactive: -23.3% [at 10 µM] |
| CC(=O)Nc1cccc(NC=C(C#N)C#N)c1 | inconclusive: 1.78 µM [activator, partial curve] | – |

Complete entries, quoted from the list.
CN(C)CCC=C1c2ccccc2CCc2ccccc21 as listed: Potency: inconclusive: 3.16 µM [activator, single point]
COCCNC(=O)CSc1nc2cc(OC)c(OC)cc2c(=O)n1Cc1ccco1 as listed: Potency: inactive
CSc1nsc(SCC(=O)N2CCCCC2)n1 as listed: Potency: inconclusive: 1 µM [activator, single point]

Carrying on:

| SMILES | Potency | cytoprotection (ATP increase) |
| --- | --- | --- |
| CC(=O)Nc1ccc(S(=O)(=O)N(C)CC(=O)OCC(=O)Nc2ccc3c(c2)OCO3)cc1 | inconclusive: 0.447 µM [activator, partial curve] | – |
| Cc1ccc(C(=O)OCC(=O)c2c[nH]c3ccccc23)cc1NC(=O)c1ccco1 | inconclusive: 6.31 µM [activator, single point] | – |
| Cc1ccc(NC(=O)c2cc3ccccc3oc2=O)cc1S(=O)(=O)N(C)C | inconclusive: 0.316 µM [activator, partial curve] | – |
| CS(=O)(=O)c1ccc(C2=C(c3ccccc3)C(=O)OC2)cc1 | inconclusive: 0.282 µM [activator, full curve, poor fit] | – |
| CC(C)COCC(CN(Cc1ccccc1)c1ccccc1)N1CCCC1 (configuration not stated) | inactive | – |
| O=C(NCCc1csc(-c2cccnc2)n1)c1ccccc1 | inconclusive: 1.26 µM [activator, single point] | – |
| Cc1ccc(S(=O)(=O)Nc2ccc3nc(C)sc3c2)cc1 | inactive | – |
| COc1ccc(-c2nc3c(c4c2C[C@H](c2ccccc2)OC4)CN(S(=O)(=O)c2ccc4c(c2)OCCN4C)CC3)c(C)c1 | – | inactive: -28.7% [at 10 µM] |
| CCN(C(=O)CN1CCN(S(=O)(=O)c2ccccc2C(F)(F)F)CC1)c1c(N)n(Cc2ccccc2)c(=O)[nH]c1=O | inconclusive: 3.55 µM [activator, single point] | – |
| O=C(O)c1cccc(S(=O)(=O)NCCc2ccccc2)c1 | inconclusive: 2.82 µM [activator, partial curve] | – |
| Cn1c(=O)c2[nH]c(CCCCc3nc4c([nH]3)c(=O)n(C)c(=S)n4C)nc2n(C)c1=S | – | inactive: -1.5% [at 10 µM] |
| Cn1c(=O)c2[nH]c(C3CCCC3)nc2n(C)c1=O | inconclusive: 0.0089 µM [activator, full curve, poor fit] | – |
| COCCn1c(=O)c(-c2cccs2)nc2cnc(OCc3ccccc3)nc21 | inconclusive: 7.08 µM [activator, full curve] | – |
| CCCOC(=O)c1c(NC(=O)CCCn2nc([N+](=O)[O-])c(Cl)c2C)sc(C(=O)OC)c1C | – | inactive: 10.8% [at 10 µM] |
| C/C(O)=C/c1nc2ccccc2[nH]c1=O | – | inactive: -19.8% [at 10 µM] |
| NC(=S)Cc1nc(-c2ccc(Cl)cc2)cs1 | inconclusive: 35.5 µM [activator, single point] | – |
| O=C(COC(=O)c1c2c(nc3ccccc13)/C(=C/c1cccc([N+](=O)[O-])c1)CCC2)NC1CCS(=O)(=O)C1 (configuration not stated) | – | inactive: -0.0917% [at 1.9 µM] |
| CC(OC(=O)C1CC1)C(=O)Nc1ccc([N+](=O)[O-])cc1Cl (configuration not stated) | active: 3.55 µM | – |
| O=S(Cc1ccc(Br)cc1)Cc1nnc(SCc2c(Cl)cccc2Cl)n1-c1ccccc1 (configuration not stated) | inconclusive: 1.26 µM [activator, single point] | – |
| O=C(Oc1ccc(=O)n(-c2ccccc2)n1)c1ccccc1 | inconclusive: 3.55 µM [activator, partial curve] | – |
| O=C(C1CCN(C2CC(=O)N(c3ccc(F)cc3)C2=O)CC1)N1CCOCC1 (configuration not stated) | – | inactive: 5.12% [at 0.074 µM] |
